Binding data for two molecules are collected here from publication PMC8881609.

Assay [1] has as its target T1, TRIM31-Flag WT (human tripartite motif-containing protein 31, E3 ubiquitin ligase) (human) (UniProt Q9BZY9).
T1 sequence: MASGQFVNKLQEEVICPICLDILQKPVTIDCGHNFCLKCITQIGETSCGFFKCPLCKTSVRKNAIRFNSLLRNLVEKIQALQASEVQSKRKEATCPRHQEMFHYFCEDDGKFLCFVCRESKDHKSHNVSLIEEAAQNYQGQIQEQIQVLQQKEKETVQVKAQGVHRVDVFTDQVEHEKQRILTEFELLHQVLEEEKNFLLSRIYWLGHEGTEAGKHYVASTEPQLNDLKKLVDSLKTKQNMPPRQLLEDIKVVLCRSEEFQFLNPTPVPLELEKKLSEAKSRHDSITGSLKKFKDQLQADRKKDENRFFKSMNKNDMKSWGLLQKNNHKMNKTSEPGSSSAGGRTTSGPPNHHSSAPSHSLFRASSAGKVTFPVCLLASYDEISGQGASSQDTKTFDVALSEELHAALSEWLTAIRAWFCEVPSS
Briefly: co-IP; L02 cells transiently transfected with Flag- and HA-tagged vectors, 36 h; Pierce IP Lysis Buffer at 4 °C; Protein A/G magnetic agarose beads, indicated antibodies at 4 °C overnight; blots probed with anti-Flag or anti-HA.

The target of assay [2] is T2, GST-tagged TRIM31 (TRIM31-HA-GST) (human) (UniProt Q9BZY9).
T2 sequence: T1 sequence
Briefly: pull-down; GST fusion from Rosetta (DE3) E. coli extract on GST beads (4 °C, 1 h), then incubated 4 h with Flag-tagged protein prepared by immunoprecipitation; eluate blotted with anti-Flag; Pierce GST Protein Interaction Pull-Down Kit; both purified.

These are yes or no findings as the source states them, for the method shown. For some assays here: Binding seen in cells or lysates may run through a third protein. Some binding calls cover weakened binding; strength is not graded here. Where a sequence is shown, tags or fusion partners need not be part of it.

B1: RHBDF2-HA WT (human rhomboid 5 homolog 2) (protein, UniProt Q6PJF5 1-856)
chain: MASADKNGGSVSSVSSSRLQSRKPPNLSITIPPPEKETQAPGEQDSMLPEGFQNRRLKKSQPRTWAAHTTACPPSFLPKRKNPAYLKSVSLQEPRSRWQESSEKRPGFRRQASLSQSIRKGAAQWFGVSGDWEGQRQQWQRRSLHHCSMRYGRLKASCQRDLELPSQEAPSFQGTESPKPCKMPKIVDPLARGRAFRHPEEMDRPHAPHPPLTPGVLSLTSFTSVRSGYSHLPRRKRMSVAHMSLQAAAALLKGRSVLDATGQRCRVVKRSFAFPSFLEEDVVDGADTFDSSFFSKEEMSSMPDDVFESPPLSASYFRGIPHSASPVSPDGVQIPLKEYGRAPVPGPRRGKRIASKVKHFAFDRKKRHYGLGVVGNWLNRSYRRSISSTVQRQLESFDSHRPYFTYWLTFVHVIITLLVICTYGIAPVGFAQHVTTQLVLRNKGVYESVKYIQQENFWVGPSSIDLIHLGAKFSPCIRKDGQIEQLVLRERDLERDSGCCVQNDHSGCIQTQRKDCSETLATFVKWQDDTGPPMDKSDLGQKRTSGAVCHQDPRTCEEPASSGAHIWPDDITKWPICTEQARSNHTGFLHMDCEIKGRPCCIGTKGSCEITTREYCEFMHGYFHEEATLCSQVHCLDKVCGLLPFLNPEVPDQFYRLWLSLFLHAGVVHCLVSVVFQMTILRDLEKLAGWHRIAIIFILSGITGNLASAIFLPYRAEVGPAGSQFGLLACLFVELFQSWPLLERPWKAFLNLSAIVLFLFICGLLPWIDNIAHIFGFLSGLLLAFAFLPYITFGTSDKYRKRALILVSLLAFAGLFAALVLWLYIYPINWPWIEHLTCFPFTSRFCEKYELDQVLH
In the case of B1, the binding entry in assay [1] is “binds”.

B2: RHBDF2-Flag (protein, UniProt Q6PJF5 1-856)
chain: B1 chain
As for B2, the binding entry in assay [2] is given as “binds”.
